Data: the supplement of paper PMC10398353
“And” between values parts separate entries of the source, which are not always exact repeats. Identical values can stand only once. Counter-ions that a name gives are not always drawn. The list shows a part of the results. The data scatter; read single values as rough.

test system: Salmonella enterica serovar Typhimurium ST313 D23580; experiment: normalized bacterial growth (OD600 20 h minus 0 h, interquartile-mean normalized) (fraction of plate interquartile mean); higher = more bacterial growth (less inhibition); settings: LPM (pH 5.8, low phosphate, low Mg2+), concentration: 10 µM, temperature: 37 °C

Row | SMILES | normalized bacterial growth
1 | C=CC1=C(C(=O)O)N2C(=O)[C@@H](NC(=O)/C(=N\O)c3csc(N)n3)[C@H]2SC1 | 0.0332
2 | CC(=O)NS(=O)(=O)c1ccc(N)cc1 [Sulfacetamide sodic hydrate] | 0.82
3 | CC(=O)NS(=O)(=O)c1ccc(N)cc1 | 0.991
4 | C=C1CC[C@@H]2[C@](C)(CO)[C@H](O)CC[C@@]2(C)[C@@H]1C/C=C1/C(=O)OC[C@H]1O | 0.9 and 0.924
5 | CCN(CC)CC(=O)Nc1c(C)cccc1C [Lidocaine hydrochloride] | 0.877
6 | CC(=O)OCC(=O)[C@@]12OC(C)(C)O[C@@H]1C[C@H]1[C@@H]3C[C@H](F)C4=CC(=O)C=C[C@]4(C)[C@@]3(F)[C@@H](O)C[C@@]12C [Fluocinonide] | 0.94
7 | CC(=O)OCC(=O)[C@@]12OC(C)(C)O[C@@H]1C[C@H]1[C@@H]3C[C@H](F)C4=CC(=O)C=C[C@]4(C)[C@@]3(F)[C@@H](O)C[C@@]12C | 1.32
8 | c1ccc2c(CC3=NCCN3)cccc2c1 | 1.2
9 | c1ccc2c(CC3=NCCN3)cccc2c1 [Naphazoline hydrochloride] | 1.17
10 | COC(=O)C1=CO[C@@H](C)[C@H]2CN3CCc4c([nH]c5ccccc45)[C@@H]3C[C@H]12 [Ajmalicine hydrochloride] | 1.05
11 | O=C(O)[C@@H]1C[C@H](C(=O)O)N1 ["cis-Azetidine-2,4-dicarboxylic acid"] | 1.1
12 | CSC(=N)NCCC[C@H](N)C(=O)O [S-Methyl-L-thiocitrulline acetate] | 1.1
13 | CO[C@@H]1[C@@H](O[C@@H]2O[C@H](C)[C@@H](O[C@H]3C[C@@](C)(O)[C@@H](OC(=O)CC(C)C)[C@H](C)O3)[C@H](N(C)C)[C@H]2O)[C@@H](CC=O)C[C@@H](C)[C@@H](O)/C=C/C=C/C[C@@H](C)OC(=O)C[C@H]1OC(C)=O [Josamycin] | 0.718
14 | NC(=O)NCCC[C@H](N)C(=O)O | 1.26
15 | C[C@@H]1O[C@@H](O[C@H]2[C@H](Oc3cc(O)c4c(=O)c(O)c(-c5ccc(O)cc5)oc4c3)O[C@H](CO)[C@@H](O)[C@@H]2O)[C@H](O)[C@H](O)[C@H]1O | 1.13
16 | O=C1NC(=S)S/C1=C\c1cc(Br)ccc1OCc1ccccc1Br [PRL-3 Inhibitor I] | 0.834
17 | O=c1oc2c(O)c(O)cc3c(=O)oc4c(O)c(O)cc1c4c23 | 0.915
18 | NS(=O)(=O)c1cc2c(cc1Cl)NC(C1CC3C=CC1C3)NS2(=O)=O (configuration not stated) [Cyclothiazide] | 1.16
19 | O=C1NS(=O)(=O)c2ccccc21 | 1.24
20 | CC(=O)CC(c1ccccc1)c1c(O)c2ccccc2oc1=O (configuration not stated) | 1.01
21 | S=C(S)N1CCCC1 [Ammonium pyrrolidinedithiocarbamate] | 1.11
22 | CC[C@H](CO)Nc1nc(NCc2ccccc2)c2ncn(C(C)C)c2n1 [Roscovitine] | 1.04
23 | OCCN(CCO)c1nc(N2CCCCC2)c2nc(N(CCO)CCO)nc(N3CCCCC3)c2n1 [Dipyridamole] | 1.23
24 | O=C(O)c1ccccc1C(=O)Nc1ccc(S(=O)(=O)Nc2nccs2)cc1 | 0.816
25 | C[N+](C)(C)CC(=O)O [Betaine hydrochloride] | 1.2
26 | C[N+](C)(C)CC(=O)O | 1.13

Row | SMILES | normalized bacterial growth
27 | C[C@]12CC[C@@H]3c4ccc(OC(=O)c5ccccc5)cc4CC[C@H]3[C@@H]1CC[C@@H]2O | 0.595
28 | CN1CCN(C(c2ccccc2)c2ccccc2)CC1 | 0.852
29 | CN1CCN(C(c2ccccc2)c2ccccc2)CC1 [Cyclizine hydrochloride] | 1.46
30 | C(=C\c1ccccc1)/CN1CCN(C(c2ccccc2)c2ccccc2)CC1 | 0.927
31 | NO [Hydroxylamine hydrochloride] | 1
32 | Nc1nc(Cl)nc2c1ncn2[C@@H]1O[C@H](CO)[C@@H](O)[C@H]1O [2-Chloroadenosine] | 0.527
33 | CC(=O)OCC(=O)[C@@]1(O)CCC2C3CCC4=CC(=O)C=C[C@]4(C)[C@@]3(F)[C@@H](O)C[C@@]21C (some centres not stated) | 0.869
34 | C[C@@H]1C[C@H]2[C@@H]3CCC4=CC(=O)C=C[C@]4(C)[C@@]3(F)[C@@H](O)C[C@]2(C)[C@@]1(O)C(=O)COP(=O)(O)O | 1.17
35 | CCN(CC)CCNC(C(=O)OCCC(C)C)c1ccccc1 (configuration not stated) | 1.05
36 | Nc1cc(Cl)c(NC2=NCCN2)c(Cl)c1 [p-Aminoclonidine hydrochloride] | 1.06
37 | O=C(Cc1ccc(Cl)c(Cl)c1)OCCN1CCCC1 [AC 915 oxalate] | 1.14
38 | N[C@@H](Cc1cc(I)c(Oc2ccc(O)c(I)c2)c(I)c1)C(=O)O [LIOTHYRONINE (L- isomer) SODIUM] | 0.465
39 | N[C@@H](Cc1cc(I)c(Oc2ccc(O)c(I)c2)c(I)c1)C(=O)O [Liothyronine] | 0.491
40 | N[C@@H](Cc1cc(I)c(Oc2ccc(O)c(I)c2)c(I)c1)C(=O)O | 1.08
41 | CN1CCC(=C2c3ccccc3Sc3ccccc32)CC1 | 0.977
42 | Nc1c2ccccc2nc2ccccc12 | 0.816
43 | Cc1ccc(=O)n(-c2ccccc2)c1 [Pirfenidone] | 1.07
44 | COC1=CC(=O)C(C(=O)c2ccccc2)=CC1=O | 1.03
45 | CC(C)c1ccc2c(c1)CCC1[C@](C)(CN)CCC[C@]21C (some centres not stated) | 1.17
46 | C[C@H](CCC(=O)O)[C@H]1CC[C@H]2[C@@H]3[C@@H](O)C[C@@H]4C[C@H](O)CC[C@]4(C)[C@H]3CC[C@]12C [Urosiol] | 0.851
47 | C[C@H](CCC(=O)O)[C@H]1CC[C@H]2[C@@H]3[C@@H](O)C[C@@H]4C[C@H](O)CC[C@]4(C)[C@H]3CC[C@]12C | 0.799
48 | C#C[C@]1(O)CC[C@H]2[C@@H]3CCC4=CCCC[C@@H]4[C@H]3CC[C@@]21C [Lynestrenol] | 0.789
49 | Cc1cc(NC(=O)Nc2ccc3c(ccn3C)c2)sn1 | 1.03
50 | O=C(CCCN1CCN(c2ccccn2)CC1)c1ccc(F)cc1 | 0.898
51 | N[C@@H](CS(=O)O)C(=O)O [L-Cysteinesulfinic Acid] | 1.28
52 | NC[C@@H]1O[C@@H](O[C@H]2[C@H](O)[C@@H](O[C@H]3O[C@H](CO)[C@@H](O)[C@H](N)[C@H]3O)[C@H](N)C[C@@H]2N)[C@@H](O)[C@H](O)[C@H]1O [Kanamycin A sulfate] | 0.95

Row | SMILES | normalized bacterial growth
53 | NC[C@@H]1O[C@@H](O[C@H]2[C@H](O)[C@@H](O[C@H]3O[C@H](CO)[C@@H](O)[C@H](N)[C@H]3O)[C@H](N)C[C@@H]2N)[C@@H](O)[C@H](O)[C@H]1O | 0.887
54 | COC(=O)[C@H](NC(=O)c1cc(-c2ccccc2)nc2ccccc12)c1ccccc1 | 0.869
55 | N#Cc1cc2nc(O)c(O)nc2cc1[N+](=O)[O-] [CNQX disodium] | 1.37
56 | CN1CCc2cc(O)c(O)cc2C1Cc1ccc(O)c(O)c1 (configuration not stated) | 1.05
57 | C[C@@H](CN1CCC(Cc2ccccc2)CC1)[C@@H](O)c1ccc(O)cc1 [Ro 25-6981 hydrochloride] | 1.18
58 | CC1CC(OC(=O)c2ccccc2O)CC(C)(C)C1 (configuration not stated) | 1.46
59 | Nc1c2c(nc3ccccc13)CCCC2 ["9-Amino-1,2,3,4-tetrahydroacridine hydrochloride"] | 1.14
60 | O=c1cc(-c2ccccc2)oc2cc(O)cc(O)c12 | 1.46
61 | C=C[C@@]1(C)CC(=O)[C@]2(O)[C@@]3(C)[C@@H](O)CCC(C)(C)[C@@H]3[C@H](O)[C@H](OC(C)=O)[C@@]2(C)O1 [Forskolin] | 0.733
62 | C=C[C@@]1(C)CC(=O)[C@]2(O)[C@@]3(C)[C@@H](O)CCC(C)(C)[C@@H]3[C@H](O)[C@H](OC(C)=O)[C@@]2(C)O1 | 1.14 and 0.947
63 | CN(Cc1cnc2nc(N)nc(N)c2n1)c1ccc(C(=O)NC(CCC(=O)O)C(=O)O)cc1 (racemic) | 1.07
64 | C/C(=C(\CCOP(=O)(O)O)SC(=O)c1ccccc1)N(C=O)Cc1cnc(C)nc1N [Benfotiamine] | 1.18
65 | CC1(C)O[C@@H]2C[C@H]3[C@@H]4CCC5=CC(=O)C=C[C@]5(C)[C@H]4[C@@H](O)C[C@]3(C)[C@]2(C(=O)CO)O1 | 1.02
66 | c1ccc(-c2ccccn2)nc1 ["2,2'-Bipyridyl"] | 1.29
67 | COc1ccccc1N1CCN(CCN(C(=O)c2ccc(F)cc2)c2ccccn2)CC1 [p-MPPF dihydrochloride] | 0.792
68 | O=C(O)Cc1cc(I)c(Oc2cc(I)c(O)c(I)c2)c(I)c1 | 0.913
69 | CCN(CC)CCOc1ccc2c(c1)C(=O)c1cc(OCCN(CC)CC)ccc1-2 | 0.796
70 | Oc1ccc(Cn2cc[nH]c2=S)cc1 [1-(4-Hydroxybenzyl)imidazole-2-thiol] | 0.99
71 | NC[C@H]1O[C@H](O[C@H]2[C@H](O)[C@@H](O[C@H]3O[C@H](CO)[C@@H](O)[C@H](N)[C@H]3O)[C@H](N)C[C@@H]2N)[C@H](O)[C@@H](O)[C@@H]1O | 1.08
72 | CC[C@H]1OC(=O)C[C@@H](O)[C@H](C)[C@@H](O[C@@H]2O[C@H](C)[C@@H](O[C@H]3C[C@@](C)(O)[C@@H](O)[C@H](C)O3)[C@H](N(C)C)[C@H]2O)[C@@H](CC=O)C[C@@H](C)C(=O)/C=C/C(C)=C/[C@@H]1CO[C@@H]1O[C@H](C)[C@@H](O)[C@@H](OC)[C@H]1OC | 0.923
73 | O=C(/C=C/c1ccc(O)c(O)c1)c1ccc(O)cc1O | 1.04
74 | COc1ccc2c(=O)c(-c3ccc(O)cc3)coc2c1 | 0.968
75 | CNS(=O)(=O)c1ccc(NC(=O)c2ccccc2C(=O)O)cc1 | 1
76 | Cc1cc(C)c(NC(=O)C[C@H](CC(=O)O)c2cccc3ccccc23)c(C(=O)N2CCC3(CCCC3)CC2)c1 | 0.718
77 | COC(=O)CC1C(C)(C)C(OC(C)=O)[C@@H]2[C@@H](OC(C)=O)[C@]34O[C@@]2(O)[C@]1(C)C3CC[C@]1(C)C4=CC(=O)O[C@H]1c1ccoc1 (some centres not stated) | 0.814
